According to PMC7528018:
For some assays here: Weaker means in comparison with the reference protein, sequence or condition of that experiment. For some assays here: Construct, isoform or probe ends are uncertain for at least one entry. For some assays here: At least one verdict rests on a figure or table, not on a statement of the authors.

Chains of the proteins cited; added tags and fusions are not shown. Chains listed by the source or under a name are the forms on record and can include a tag or linker.
τA (τ131-τ95-τ55), wt (Saccharomyces cerevisiae), one chain, as listed by the source, chain 1 of 3: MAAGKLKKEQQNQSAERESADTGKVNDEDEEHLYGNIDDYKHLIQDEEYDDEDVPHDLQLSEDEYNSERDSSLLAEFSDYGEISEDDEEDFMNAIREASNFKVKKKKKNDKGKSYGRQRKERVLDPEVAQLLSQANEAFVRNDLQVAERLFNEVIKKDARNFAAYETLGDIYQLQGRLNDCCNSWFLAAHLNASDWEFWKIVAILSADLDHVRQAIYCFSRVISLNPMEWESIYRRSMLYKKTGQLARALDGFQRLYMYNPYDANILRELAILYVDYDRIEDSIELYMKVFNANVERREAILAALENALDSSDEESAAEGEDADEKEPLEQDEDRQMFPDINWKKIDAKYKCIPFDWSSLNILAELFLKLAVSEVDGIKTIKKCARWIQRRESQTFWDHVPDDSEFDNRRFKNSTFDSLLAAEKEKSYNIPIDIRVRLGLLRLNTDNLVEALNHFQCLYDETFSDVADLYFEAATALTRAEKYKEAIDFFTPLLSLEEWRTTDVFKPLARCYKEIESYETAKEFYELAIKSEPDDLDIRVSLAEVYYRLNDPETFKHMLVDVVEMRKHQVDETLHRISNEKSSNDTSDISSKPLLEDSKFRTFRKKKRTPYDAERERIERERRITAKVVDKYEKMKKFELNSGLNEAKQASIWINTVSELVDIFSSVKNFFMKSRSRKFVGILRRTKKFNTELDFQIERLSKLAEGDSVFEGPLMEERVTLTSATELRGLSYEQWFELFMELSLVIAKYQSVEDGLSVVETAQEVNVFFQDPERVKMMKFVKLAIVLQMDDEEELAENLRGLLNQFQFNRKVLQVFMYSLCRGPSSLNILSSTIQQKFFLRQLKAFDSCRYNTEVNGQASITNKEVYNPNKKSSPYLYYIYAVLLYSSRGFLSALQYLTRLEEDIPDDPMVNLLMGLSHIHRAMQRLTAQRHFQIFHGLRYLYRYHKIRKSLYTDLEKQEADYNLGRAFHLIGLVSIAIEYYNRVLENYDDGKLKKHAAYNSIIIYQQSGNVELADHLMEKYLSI
τA (τ131-τ95-τ55), wt (Saccharomyces cerevisiae), one chain, as listed by the source, chain 3 of 3: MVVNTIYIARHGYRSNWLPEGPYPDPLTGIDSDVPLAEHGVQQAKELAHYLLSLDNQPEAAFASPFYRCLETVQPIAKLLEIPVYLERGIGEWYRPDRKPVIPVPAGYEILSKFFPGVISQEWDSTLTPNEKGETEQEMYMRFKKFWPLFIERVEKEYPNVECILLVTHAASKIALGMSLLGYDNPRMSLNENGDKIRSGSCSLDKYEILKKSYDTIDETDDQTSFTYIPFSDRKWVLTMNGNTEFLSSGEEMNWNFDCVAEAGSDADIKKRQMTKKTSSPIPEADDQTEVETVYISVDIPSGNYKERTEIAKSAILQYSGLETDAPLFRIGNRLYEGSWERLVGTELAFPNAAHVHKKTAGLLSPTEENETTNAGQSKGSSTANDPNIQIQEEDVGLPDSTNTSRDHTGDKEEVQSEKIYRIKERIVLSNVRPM
τA (τ131-τ95-τ55), wt (Saccharomyces cerevisiae), one chain, as listed by the source, chain 2 of 3: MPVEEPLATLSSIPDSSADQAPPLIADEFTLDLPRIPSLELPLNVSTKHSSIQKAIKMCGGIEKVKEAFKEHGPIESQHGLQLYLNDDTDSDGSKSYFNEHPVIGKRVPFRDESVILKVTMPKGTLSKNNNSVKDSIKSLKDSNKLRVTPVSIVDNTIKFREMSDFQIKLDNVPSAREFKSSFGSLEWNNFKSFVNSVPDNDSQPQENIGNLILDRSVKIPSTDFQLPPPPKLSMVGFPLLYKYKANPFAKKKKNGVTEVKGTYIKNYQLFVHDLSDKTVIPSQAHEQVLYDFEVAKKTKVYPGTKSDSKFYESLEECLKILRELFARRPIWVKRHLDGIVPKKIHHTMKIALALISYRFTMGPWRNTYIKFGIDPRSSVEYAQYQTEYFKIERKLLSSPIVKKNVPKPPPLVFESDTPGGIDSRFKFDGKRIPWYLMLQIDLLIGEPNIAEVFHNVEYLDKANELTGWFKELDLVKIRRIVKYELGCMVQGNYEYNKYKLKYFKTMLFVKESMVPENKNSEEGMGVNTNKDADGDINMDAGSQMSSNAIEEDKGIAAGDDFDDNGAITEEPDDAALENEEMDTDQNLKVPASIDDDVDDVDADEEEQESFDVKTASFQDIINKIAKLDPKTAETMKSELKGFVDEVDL

Experiments:
[1] = test system: τA Δplug (τ95Δplug) (Saccharomyces cerevisiae); assay: filter binding; settings: similar results to EMSA, no saturation, probe not restated; recombinant protein; protein details: N-terminal TEV-cleavable His tag on τ95; label: 6FAM at 3' end of non-template strand
[2] = test system: τA (τ131-τ95-τ55), wt (Saccharomyces cerevisiae); assay: filter binding; settings: similar results to EMSA, no saturation, probe not restated; recombinant protein; protein details: N-terminal TEV-cleavable His tag on τ95; label: 6FAM at 3' end of non-template strand
[3] = test system: τA Δtail (τ95Δtail) (Saccharomyces cerevisiae); assay: filter binding; settings: similar results to EMSA, no saturation, probe not restated; recombinant protein; protein details: N-terminal TEV-cleavable His tag on τ95; label: 6FAM at 3' end of non-template strand
[4] = test system: τA (τ131-τ95-τ55), wt (Saccharomyces cerevisiae); assay: EMSA; settings: just begins to shift at 10 uM protein, 1 uM DNA, affinity roughly micromolar; τA EMSA: 100 mM NaCl, 20 mM HEPES pH 7.5, 5 mM DTT, 1 h on ice, 10% glycerol added before loading; recombinant protein; protein details: N-terminal TEV-cleavable His tag on τ95; label: 6FAM at 3' end of non-template strand
[5] = test system: holo-TFIIIC, wt (Saccharomyces cerevisiae); assay: EMSA; settings: 0.03-2.18 uM TFIIIC, 0.5 uM DNA; τA EMSA: 100 mM NaCl, 20 mM HEPES pH 7.5, 5 mM DTT, 1 h on ice, 10% glycerol added before loading; recombinant protein; label: 6FAM at 3' end of non-template strand

## CATCTTAGTATAGTGGTTAGT (double strand) [His_Abox]
[1]
  binding result: binds
[2]
  binding result: binds more weakly
[3]
  binding result: binds
[4]
  binding result: binds more weakly

## CATCTTAGTATAGTGGTTAGTACACATCGTTGTGGCCGATGAAACCCTGGTTCGATTCTAGG (double strand) [His_Abox_Bbox]
[5]
  binding result: binds
